Laboratory results: PubChem BioAssay AID1053208 (Peter MacCallum Cancer Centre, 2014)
This is a random part of about 17,000 reagents tested. Of all reagents, 788 (4.7%) got an active call. 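Calls rest on z-score classes alone; an extra cut-off of viability at most 70% of control was not applied to them.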 A number with no mark means an inactive call. Not all columns of the deposit are shown.

Screen: 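Genes whose silencing cuts survival of bone tumour cells only with doxorubicin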 (primary screen)
Cell system: mouse osteosarcoma cells, early-passage culture from an engineered mouse model of fibroblastic bone tumour
Knock-down reagent: siRNA pool against mouse genes, 40 nM
Timing: about 120 h (48 h before drug, then 72 h with drug)
Treatment: doxorubicin 100 nM for 72 h, roughly 30-40% inhibitory dose
Detection: 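Luminescent ATP signal taken as viability with or without 100 nM doxorubicin for 72 h; mean of two wells set against non-targeting siRNA and turned into robust z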
Direction: viability z-score with doxorubicin: higher = more viable cells under doxorubicin; viability z-score without drug: higher = more viable cells with knock-down alone
Call rule: 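a pool counts as active when its viability z-score with doxorubicin is -2 or below and its z-score without drug lies between -2 and 2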

gene knocked down	combined z-score class	viability z-score with doxorubicin	viability z-score without drug
Clspn (claspin)	no change with or without drug	-1.57	0.51
Plekha5 (pleckstrin homology domain containing A5)	no change with or without drug	-0.9	0.84
Krt14 (keratin 14)	no change with or without drug	-0.79	-1.18
Psmb2 (proteasome (prosome, macropain) subunit, beta type 2)	low cell count with and without drug	-7.98	-7.93
Naa80 (N(alpha)-acetyltransferase 80, NatH catalytic subunit)	no change with or without drug	0.67	-0.34
Rbmx2 (RNA binding motif protein, X-linked 2)	no change with or without drug	1.12	1.18
Mrgprg (MAS-related GPR, member G)	no change with or without drug	-0.67	-0.84
Acp3 (acid phosphatase 3)	no change with or without drug	0	-0.51
Apoc1 (apolipoprotein C-I)	no change with or without drug	0.67	0
Hnrnpa2b1 (heterogeneous nuclear ribonucleoprotein A2/B1)	no change with or without drug	0	0
Ms4a5 (membrane-spanning 4-domains, subfamily A, member 5)	no change with or without drug	-0.67	-0.17
2610528J11Rik (RIKEN cDNA 2610528J11 gene)	no change with or without drug	0.11	-0.17
Klra23 (killer cell lectin-like receptor subfamily A, member 23)	no change with or without drug	0	-0.51
St6gal1 (beta galactoside alpha 2,6 sialyltransferase 1)	no change with or without drug	-0.67	-0.67
Calml4 (calmodulin-like 4)	no change with or without drug	-0.34	-0.84
Pgam1 (phosphoglycerate mutase 1)	no change with or without drug	1.24	1.85
C9 (complement component 9)	no change with or without drug	-0.45	1.35
Nme6 (NME/NM23 nucleoside diphosphate kinase 6)	no change with or without drug	0.11	1.35
Zfp36 (zinc finger protein 36)	no change with or without drug	1.69	0.84
Pcyox1l (prenylcysteine oxidase 1 like)	no change with or without drug	-0.56	0.51
Dnaja2 (DnaJ heat shock protein family (Hsp40) member A2)	no change with or without drug	1.46	0
Cct3 (chaperonin containing TCP1 subunit 3)	no change with or without drug	1.12	-0.84
Epb41l2 (erythrocyte membrane protein band 4.1 like 2)	no change with or without drug	-1.12	-1.01
Ttc36 (tetratricopeptide repeat domain 36)	no change with or without drug	0.79	1.01
Pkd1l2 (polycystic kidney disease 1 like 2)	no change with or without drug	-0.9	0.51
Dpagt1 (dolichyl-phosphate N-acetylglucosaminephosphotransferase 1)	no change with or without drug	0	0
Vmn1r71 (vomeronasal 1 receptor 71)	no change with or without drug	0	-0.84
Cxcl10 (C-X-C motif chemokine ligand 10)	no change with or without drug	0.45	-1.18
Or11j4 (olfactory receptor family 11 subfamily J member 4)	no change with or without drug	-0.45	-0.84
Enox2 (ecto-NOX disulfide-thiol exchanger 2)	no change with or without drug	-0.45	0.17
Abcb6 (ATP-binding cassette, sub-family B member 6)	no change with or without drug	-0.22	-1.18
Ercc3	no change with or without drug	-0.56	1.69
Rhoh (ras homolog family member H)	high cell count without drug only	1.01	3.37
Banf2 (BANF family member 2)	no change with or without drug	0.45	0.84
